No constants are given. Whether binding was seen depends on the method and setting. In cells and extracts the contact can be indirect. Binding calls can cover weak binding; strength is not graded here.
Biological target: GATA6, endogenous in mouse hindlimb buds (mouse (endogenous in hindlimb buds)) (UniProt Q61169)
Experiment: co-IP; lysate of pooled wild-type mouse hindlimb buds, E10.25-10.5; anti-GATA6 (Cell Signaling #5851) and Dynabeads protein G; Western with anti-GLI3 (R&D Systems AF3690)

Amino acid sequences for entries named in this document (tags omitted). A change or cut given only in a name is not applied to a line headed by its entry.
UniProt Q61169: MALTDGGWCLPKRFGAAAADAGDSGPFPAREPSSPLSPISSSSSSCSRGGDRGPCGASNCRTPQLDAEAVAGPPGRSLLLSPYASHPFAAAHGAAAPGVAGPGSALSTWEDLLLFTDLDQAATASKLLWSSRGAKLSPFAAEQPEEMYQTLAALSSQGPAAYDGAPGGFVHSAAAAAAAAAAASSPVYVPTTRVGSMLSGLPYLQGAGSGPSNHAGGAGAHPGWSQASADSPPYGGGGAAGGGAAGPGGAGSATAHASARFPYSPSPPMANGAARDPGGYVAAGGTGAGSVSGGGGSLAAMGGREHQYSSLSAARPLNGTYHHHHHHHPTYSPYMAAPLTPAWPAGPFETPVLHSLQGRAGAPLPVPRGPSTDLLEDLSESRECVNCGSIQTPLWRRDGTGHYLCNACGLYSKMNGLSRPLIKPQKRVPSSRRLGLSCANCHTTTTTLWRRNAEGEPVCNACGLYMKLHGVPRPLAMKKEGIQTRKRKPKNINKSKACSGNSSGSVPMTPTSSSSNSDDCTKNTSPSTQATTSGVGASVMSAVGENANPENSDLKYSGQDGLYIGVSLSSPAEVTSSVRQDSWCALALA
UniProt Q61602: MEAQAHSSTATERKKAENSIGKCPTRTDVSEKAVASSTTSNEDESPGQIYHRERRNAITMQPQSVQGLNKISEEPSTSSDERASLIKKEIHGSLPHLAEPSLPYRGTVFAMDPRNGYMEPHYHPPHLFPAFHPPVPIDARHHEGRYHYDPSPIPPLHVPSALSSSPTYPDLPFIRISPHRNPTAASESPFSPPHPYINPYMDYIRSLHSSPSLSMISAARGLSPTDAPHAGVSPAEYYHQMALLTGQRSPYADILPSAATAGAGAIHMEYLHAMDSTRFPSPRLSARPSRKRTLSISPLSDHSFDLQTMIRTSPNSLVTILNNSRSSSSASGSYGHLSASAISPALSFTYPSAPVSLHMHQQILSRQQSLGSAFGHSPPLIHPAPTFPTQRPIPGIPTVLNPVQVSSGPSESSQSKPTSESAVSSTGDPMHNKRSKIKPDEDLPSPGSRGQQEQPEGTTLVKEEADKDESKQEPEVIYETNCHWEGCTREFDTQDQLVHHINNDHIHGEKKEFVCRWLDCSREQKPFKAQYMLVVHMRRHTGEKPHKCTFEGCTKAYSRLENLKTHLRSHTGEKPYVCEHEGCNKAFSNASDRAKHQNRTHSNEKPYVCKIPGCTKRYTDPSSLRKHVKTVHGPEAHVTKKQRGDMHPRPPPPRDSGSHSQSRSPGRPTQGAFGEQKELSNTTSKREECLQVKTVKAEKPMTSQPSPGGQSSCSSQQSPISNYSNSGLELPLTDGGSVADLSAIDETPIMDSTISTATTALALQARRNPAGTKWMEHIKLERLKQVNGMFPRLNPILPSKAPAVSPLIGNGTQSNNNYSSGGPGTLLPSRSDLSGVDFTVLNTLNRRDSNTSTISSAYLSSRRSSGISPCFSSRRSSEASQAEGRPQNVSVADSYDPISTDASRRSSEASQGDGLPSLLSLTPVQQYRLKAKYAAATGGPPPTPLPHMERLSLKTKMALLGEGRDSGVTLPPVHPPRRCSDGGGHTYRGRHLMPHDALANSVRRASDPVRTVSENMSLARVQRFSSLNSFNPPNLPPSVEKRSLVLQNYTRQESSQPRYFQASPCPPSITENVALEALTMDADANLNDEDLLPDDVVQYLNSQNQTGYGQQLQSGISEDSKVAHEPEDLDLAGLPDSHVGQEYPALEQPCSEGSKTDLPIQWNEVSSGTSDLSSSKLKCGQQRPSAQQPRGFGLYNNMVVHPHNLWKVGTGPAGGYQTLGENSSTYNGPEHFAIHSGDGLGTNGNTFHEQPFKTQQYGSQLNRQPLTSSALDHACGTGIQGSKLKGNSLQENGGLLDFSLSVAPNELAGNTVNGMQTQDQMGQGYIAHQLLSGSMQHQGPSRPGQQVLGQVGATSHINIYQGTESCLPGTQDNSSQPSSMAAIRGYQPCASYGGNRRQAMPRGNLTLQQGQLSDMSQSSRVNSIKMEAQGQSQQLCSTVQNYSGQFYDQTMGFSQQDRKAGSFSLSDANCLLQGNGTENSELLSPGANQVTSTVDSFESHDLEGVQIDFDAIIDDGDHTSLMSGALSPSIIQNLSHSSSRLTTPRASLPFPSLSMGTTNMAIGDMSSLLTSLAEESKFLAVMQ

binding: binds
Substance: GLI3R, endogenous in mouse hindlimb buds (from UniProt Q61602)

Reference: PMC4924869
